{"source": "PubChem BioAssay AID1487", "about": "(National Center for Advancing Translational Sciences (NCATS), 2009)", "test": "qHTS Assay for Modulators of Lamin A Splicing", "conditions": "HeLa LMNA splicing GFP/RFP minigene ratio, 48 h", "outline": "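S3 HeLa stable clones carrying a lamin A-EGFP splicing minigene plus DsRed2 were seeded at 600 cells/well in Opti-MEM with 2% FBS, pin-dosed and incubated 48 h at 37°C. Acumen cytometry (488 nm) gave the GFP/RFP total-intensity ratio.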", "key": {"[1]": {"conditions": "measured here: GFP splicing reporter channel"}, "[2]": {"conditions": "measured here: RFP viability control channel"}}, "note": "“And” between values parts separate entries of the source, which are not always exact repeats. Identical values can stand only once. Some of the results follow. Further columns of the screen follow, without active or inactive calls. The list favours compounds with an active or inconclusive main result. The note in brackets gives the kind of curve behind each potency; many fits are weak."}
{"smiles": "COc1cccc(C(=O)c2cc3ccc(O)cc3oc2=O)c1", "values": [{"measurement": "AC50", "setting": "[1]", "result": "35.5 µM [rising, single point]"}, {"measurement": "AC50", "setting": "[2]", "result": "20 µM [rising, single point]"}]}
{"smiles": "CCOC(=O)Cc1csc(NC(=S)NC(=O)c2ccc(Cl)cc2)n1", "values": [{"measurement": "AC50", "setting": "[2]", "result": "20 µM [falling, partial curve]"}]}
{"smiles": "O=C(Nc1cc(Cl)cc(Cl)c1)c1ccc(F)c(S(=O)(=O)NCc2ccccc2Cl)c1", "values": [{"measurement": "AC50", "setting": "[2]", "result": "31.6 µM [falling, partial curve, poor fit]"}]}
{"smiles": "CCN(CC)P(=O)(/C(Cl)=C\\Nc1c(C)n(C)n(-c2ccccc2)c1=O)N(CC)CC", "values": [{"measurement": "AC50", "setting": "[2]", "result": "0.398 µM [falling, full curve, poor fit]"}]}
{"smiles": "COCCCN=C(c1ccco1)n1c(=S)nc(-c2ccco2)n(CCCOC)c1=S", "values": [{"measurement": "AC50", "setting": "[1]", "result": "3.55 µM [rising, single point]"}, {"measurement": "AC50", "setting": "[2]", "result": "3.55 µM [rising, partial curve, poor fit]"}]}
{"smiles": "O=C(NNS(=O)(=O)c1ccc2ccccc2c1)c1cc(-c2ccccn2)nc2ccccc12", "values": [{"measurement": "AC50", "setting": "[2]", "result": "7.94 µM [rising, partial curve]"}]}
{"smiles": "Cc1ccc(-n2ncc(C(=O)Nc3c(Cl)cccc3Cl)c2C2CCNCC2)cc1", "values": [{"measurement": "AC50", "setting": "[1]", "result": "2.51 µM [falling, full curve, poor fit]"}]}
{"smiles": "Cn1ccnc1Sc1cc(Cl)ccc1[N+](=O)[O-]", "values": [{"measurement": "AC50", "setting": "[2]", "result": "11.2 µM [rising, partial curve, poor fit]"}]}
{"smiles": "COc1ccc(OCCn2c(=O)sc3ccccc32)cc1", "values": [{"measurement": "AC50", "setting": "[1]", "result": "5.62 µM [rising, partial curve]"}]}
{"smiles": "O=[N+]([O-])c1ccc(/C=C/c2nc3ccc([N+](=O)[O-])cc3[nH]2)cc1", "values": [{"measurement": "AC50", "setting": "[2]", "result": "5.62 µM [rising, single point]"}]}
{"smiles": "COc1ccccc1OCC(O)CN1CCN(CC(=O)Nc2c(C)cccc2C)CC1", "note": "(stereo not given)", "values": [{"measurement": "AC50", "setting": "[1]", "result": "2.51 µM [rising, partial curve, poor fit]"}, {"measurement": "AC50", "setting": "[2]", "result": "0.794 nM [rising, full curve, poor fit] and 6.31 µM [falling, single point]"}]}
{"smiles": "COc1ccc(N(C(=O)C(C)C)S(=O)(=O)c2cccc([N+](=O)[O-])c2)cc1", "values": [{"measurement": "AC50", "setting": "[1]", "result": "0.0316 µM [falling, full curve, poor fit]"}]}
{"smiles": "COc1ccc(C(=O)CSc2ccc(-c3ccccc3)nn2)cc1", "values": [{"measurement": "AC50", "setting": "[2]", "result": "11.2 µM [rising, single point]"}]}
{"smiles": "Cc1ccc(NC(=O)C(C)c2cccc(C(=O)c3ccccc3)c2)cc1O", "note": "(stereo not given)", "values": [{"measurement": "AC50", "setting": "[1]", "result": "0.112 µM [rising, full curve]"}, {"measurement": "AC50", "setting": "[2]", "result": "3.98 µM [rising, full curve]"}]}
{"smiles": "COCC(=O)Nc1nnc(CCc2ccccc2)s1", "values": [{"measurement": "AC50", "setting": "[1]", "result": "3.16 µM [falling, partial curve]"}, {"measurement": "AC50", "setting": "[2]", "result": "2.82 µM [falling, partial curve, poor fit]"}]}
